Library screening results

The values are deposited in ChEMBL (CHEMBL3988442, “University of Dundee, Small-Polar-MMV Screening Library” (2021)).

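Viability assay of Plasmodium falciparum sporozoites; the read-out is not stated. The concentration is filed as 10 mM, unlikely as a test dose, so the dose is not known. Direction is inferred from retests: higher values go with lower viability. Strong results were mostly tested again. Size under these conditions: about 34,000 compounds, about 280 of them at 50% or above in at least one test.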

Values are the deposited “Percent Effect”, in %. The controls that fix the scale are not given in the record; negative values are as filed. The compounds are a random part of those screened. Two or more numbers in one place are separate tests of the same structure; such repeats can differ widely.

structure | effect
CNC(=O)NC(=O)CN1CCC(c2cccc(F)c2)C1 (stereo not given) | 4.452
O=C(NCc1ccccn1)N1CC=C(c2ccccc2)CC1 | -10.03
Cc1cccc(CN2CCC3(CCCN(C(=O)c4ccsc4)C3)C2=O)n1.O=C(O)C(F)(F)F (stereo not given) | -1.676
CCn1cc(NC(=O)NCC(O)CN2CCc3ccccc3C2)cn1 (stereo not given) | -3.468
c1nc2c(c(N3CCOCC3)n1)CCNCC2 | -3.986
[H][C@@]12CCN(S(=O)(=O)CC)[C@]1([H])CC[C@@H](c1nnc(C)o1)O2 | 6.397
Cc1cnn(CC2CN(CC(=O)NCc3ccc(C)s3)CCO2)c1 (stereo not given) | 1.144
FC(F)(F)c1cc(NCCn2ncnn2)nc(-c2cccnc2)n1 | -18.51
Cc1cc(F)c2c(c1)CCCN2S(=O)(=O)c1ncn(C)c1Cl | -3.676
Cc1nc(C)n(C2CCCN(C(=O)COc3ccccc3)C2)n1 (stereo not given) | 2.017
Cc1c[nH]c(CN(C)c2nc(C3CCCC3)nc3c2cnn3C)n1 | 3.135
O=C(CCn1c(C(F)F)cc2cccnc21)NC1CCCCC1 | 5.017
CCN1CC2(CCN(C(=O)N(C)C)CC2)COc2ccccc2S1(=O)=O | 9.912
Fc1ccc(F)c(CN2CCC(c3cnccn3)CC2)c1 | -22.49 and 0.7033 and -31.25
CCN(CC)C(=O)CCc1c(C)nc2cc(O)nn2c1C | -9.808
CCN(CC)Cc1ccc(C(=O)N2CCCC2Cn2cccn2)cc1 (stereo not given) | 2.592
O=C(O)C(F)(F)F.[H][C@]12CCC(=O)N(c3cccnc3)[C@@]1([H])CCN2C(=O)c1cnoc1C | -1.128
Cc1nnc(NC(=O)NCc2ccc(N3CCN(C)CC3)nc2)s1 | 3.993
O=C(O)C(F)(F)F.[H][C@]12CCN(c3ncccn3)[C@@]1([H])C[C@@H](C(=O)Nc1nc(C)cs1)O2 | 2.312
[H][C@]12CN(c3ncccn3)C[C@@]1([H])S(=O)(=O)CC[C@@H]2C(=O)NCC(C)C | 13.33
[H][C@]12CCN(S(=O)(=O)c3ccc(C)cc3)[C@@]1([H])CC[C@@H](COC)O2 | -23.39
CC(C(=O)NCC1(c2c(F)cccc2F)CCCC1)S(C)(=O)=O (stereo not given) | -8.457
Cc1ccc(N2CCC3(CN(CCO)CCC3(F)F)C2)nn1.O=C(O)C(F)(F)F (stereo not given) | 14.73
Cc1ccc(C(=O)N2CCC[C@@H]2Cn2nnc3c(O)nc(C)nc32)cc1 | 3.331
O=C(O)C(F)(F)F.c1cnc(N2CCCC3(CCN(CC4CCOC4)CC3)C2)nc1 (stereo not given) | -10.52
COCCn1cc(NC(=O)NCC2CCN(c3ccccc3)C2)cn1 (stereo not given) | -0.3712 and -5.624
Cc1occc1C(=O)N1CCc2c(CNS(C)(=O)=O)cncc2C1.Cl | 8.263
Cc1cc(C)c(C(=O)N2CCOC(c3cccs3)C2)c(=O)[nH]1 (stereo not given) | -14.21
CN(Cc1nccs1)c1nc(-c2ccccn2)nc2c1CCNCC2 | -8.287
[H][C@@]12CCN(Cc3cccc4ccccc34)C[C@]1(c1nnc(C)o1)CCO2 | -7.426
CC(C)(CO)Nc1cc(-c2ccccc2)ncn1 | -1.778
Cc1nn(C(C)C)cc1S(=O)(=O)N(C)Cc1nonc1C | 5.231
Cc1cc(C)n(CC(C)NC(=O)C(C)(C)c2ccccc2F)n1 (stereo not given) | 8.233
CN(CC(=O)NCC(F)(F)F)Cc1nc2c(s1)CCCC2 | 29.9 and 31.57
O=C(NC1CCC1)c1n[nH]c2c1CNCC2 | -0.8554
O=C(C1CCCC1)N1CCC(c2n[nH]c3nccnc23)CC1 | -5.021
Cc1cc(CN(C)C(=O)c2ccc(OC(C)C)nc2)no1 | 6.375
Cc1nccn1CCC1CCCCN1Cc1ccc(N(C)C)nc1 (stereo not given) | -2.146
Cc1csc2ncc(-c3ccnc(N4CCCC[C@@H]4CO)n3)c(=O)n12 | 5.392
COCCNC(=O)c1ccc2c(=O)n3c(nc2c1)CCCC3 | 0.09083
CCn1c(CN2CCN(C(=O)C3CCC3)CC2)nc2c(F)cccc21 | 3.277
CCn1ncc(S(=O)(=O)NC2(CN3CCOCC3)CCCCC2)c1C | -4.02
CC(=O)N(C)c1nc(CN2CCCC2Cn2nc(C)cc2C)cs1 (stereo not given) | 6.701
COC(=O)COn1c(SC(C)C)nc2ccccc2c1=O | 5.54
CC(C)NC(=O)c1ccc2nnc(C3CCN(S(C)(=O)=O)C3)n2c1 (stereo not given) | -9.777
[H][C@@]12CC[C@H](Oc3ccccc3Cl)[C@]1([H])CN(C(=O)Cn1ccnc1)C2 | -19.55
CC1c2ncc(CNC(=O)C3CC3)n2CCN1Cc1ccncc1.O=C(O)C(F)(F)F.O=C(O)C(F)(F)F (stereo not given) | 18.04
CC1CCN(C(CNC(=O)CCn2cccn2)c2cccs2)CC1 (stereo not given) | 7.296
O=C(O)C(F)(F)F.[H][C@@]12CCN(Cc3ccccc3)C[C@]1(C(=O)N1CCCO1)CCO2 | -21.09 and -5.736 and -12.99
O=C(NC1CC1)N1CCc2ncc(CN3CCOCC3)n2CC1.O=C(O)C(F)(F)F | -6.615
CN1CCN(Cc2cccnc2)Cc2cccnc21 | -5.826
CCn1ncc2c1C(COC)N(C(=O)c1ccsc1)CC2.O=C(O)C(F)(F)F (stereo not given) | 14.51
Cc1nc(CN2CC3(CCN(c4ncc(F)cn4)C3)CC2=O)cs1.O=C(O)C(F)(F)F (stereo not given) | -6.592
CCC(CC)C(=O)N1CCC(c2nn(CCN)c3nccnc23)C1 (stereo not given) | 7.258
COC(=O)NCC(=O)N1CCC(c2cc3ccccc3[nH]2)CC1 | -14.1
COc1cccc(-c2cnc(C3CCNCC3)cn2)c1 | 2.216
Cn1ccnc1CCC1CCCCN1Cc1nccn1C (stereo not given) | -10.27
CN(C)c1ccccc1C(=O)N1C[C@@H](CN2CCOCC2)[C@@H](CO)C1 | 12.99
CC(C)=CCN1CCOC(Cn2nc(C)cc2C)C1 (stereo not given) | 4.287
CCCc1noc(CN2CCC(c3ccnn3CCO)CC2)n1 | 0.8456
Cc1nc(C)n(CC2CCCN2Cc2nc(-c3cccs3)no2)n1 (stereo not given) | -3.808 and 27.86 and 3.489
O=C(CCOCC(F)(F)F)N1CCCC(n2ccnc2)C1 (stereo not given) | -0.2026 and -7.551 and 4.163
O=C(CCc1nc2cc(Br)cnc2[nH]1)NCCCN1CCOCC1 | -5.359
O=C(O)C(F)(F)F.O=C(c1cnoc1)N1CCC[C@]2(C[C@@H](OCc3ccccn3)CO2)C1 | 0.4677
CC(C)c1cc(NC(=O)c2ccc(C(=O)NC(C)(C)C)cc2)[nH]n1 | -32.25 and -29.63 and 2.78
O=C(O)C(F)(F)F.O=C(O)C(F)(F)F.[H][C@@]12COC[C@]1(CN(C)C)CN(Cc1cc(C)on1)C2 | -16.46
Cc1nc(COc2ccc(CNCC3CN(C)CCO3)cc2)cs1 (stereo not given) | 16.53
Cc1cccc2nc(-c3nc4c([nH]3)CCCNC4=O)cn12 | 17.95 and -43.13 and -48.64
NC(=O)CNC(c1ccccc1)c1ccc(OC(F)F)cc1 (stereo not given) | -9.274 and -23.47
CNc1nc(C2CCCN(C(=O)C(C)C)C2)nc2c1CN(C)CC2 (stereo not given) | 13.99
Cc1ccc(C(=O)N2CCc3c(COCC4CC4)cncc3C2)o1 | 8.249
CC(C)c1nccn1C1CCCN(C(=O)c2ccc3[nH]nnc3c2)C1 (stereo not given) | 0.4624
CC(C)Sc1ncccc1C(=O)NCc1ccc(O)cc1 | 9.433
O=C(c1ccncc1)N1CCN(c2ccc(F)cc2Cl)CC1 | -0.8881
CNC(=O)[C@@H]1C[C@@H](N)CN1c1nc(N2CCCC2)nc(C)c1C | 1.954
Cc1sc(-c2ccco2)nc1C(=O)N1CCCC1Cn1cccn1 (stereo not given) | 0.6807
CC(=O)NCc1ccc(C(=O)N2CCCC2c2cnn(C)c2)cc1 (stereo not given) | 4.671
NC(=O)CN1CCCN(C(=O)Cc2ccc3c(c2)OCCO3)CC1 | 10.91
O=C(NCc1csc(Br)c1)Nc1cn[nH]c1 | 8.057
COc1ccc(Cl)cc1CC(=O)N1CCN(CC(C)(C)O)CC1 | 2.566
CCN(C)S(=O)(=O)N(Cc1cscn1)c1ccccc1 | 17.42
CC(Cn1cccn1)NCc1csc(COc2ccccc2)n1 (stereo not given) | 1.932
Cc1cnn(CCNCC(=O)NCCOc2ccccc2)c1 | -1.711
Cc1nc(NC(=O)CN2CCOC(Cn3cccn3)C2)sc1C (stereo not given) | -10.93
Cc1noc(C2CCCN(C(=O)CCCNc3ncccn3)C2)n1 (stereo not given) | 13.84
CNc1nc(CNC(=O)Nc2cccc(CN(C)C)c2)cs1 | -3.307
Cc1c(C(=O)N2CCCC2c2cnn(C)c2)cnn1-c1ccccc1 (stereo not given) | 11.31
CC(=O)c1ccc(N2CCCC(CO)(CCc3ccccc3)C2)nc1 (stereo not given) | -0.9649
CN(C)C(=O)N1CC2(CCNCC2)c2cc(Cl)ccc21.Cl | 16.33
O=C(NCc1cccnc1)C1CC(=O)N(CC2CC2)C1 (stereo not given) | 3.468
O=C(O)C(F)(F)F.[H][C@@]12CCN(Cc3cc(C)on3)C[C@]1([H])OCCN(c1ccccc1)C2=O | 12.34
Cc1cc(C)n(-c2ccc(CNCc3ccc(OC(C)C)cc3)cn2)n1 | -6.925
CCc1n[nH]c(C2CN(C(=O)c3ncoc3C(C)C)CCO2)n1 (stereo not given) | -3.378
Cc1nn(C)c(C)c1C1CCCN1C(=O)c1ccc(N(C)C)nc1 (stereo not given) | -4.2
CCc1nc(N2CCCC(O)(CO)CC2)ncc1C (stereo not given) | 9.123

Some entries from above, unchanged:

{"structure": "CCc1n[nH]c(C2CN(C(=O)c3ncoc3C(C)C)CCO2)n1", "stereo": "stereo not given", "effect": -3.378}
{"structure": "O=C(O)C(F)(F)F.O=C(O)C(F)(F)F.[H][C@@]12COC[C@]1(CN(C)C)CN(Cc1cc(C)on1)C2", "effect": -16.46}
{"structure": "CC(C(=O)NCC1(c2c(F)cccc2F)CCCC1)S(C)(=O)=O", "stereo": "stereo not given", "effect": -8.457}
{"structure": "COc1ccc(Cl)cc1CC(=O)N1CCN(CC(C)(C)O)CC1", "effect": 2.566}
{"structure": "O=C(CCn1c(C(F)F)cc2cccnc21)NC1CCCCC1", "effect": 5.017}
{"structure": "O=C(NCc1csc(Br)c1)Nc1cn[nH]c1", "effect": 8.057}